Measurements reported in the supplement of paper PMC10849652.
Some of the results follow.

Protein sequences, listed by entry. Tags and fused reporters are not part of them. Lines headed by an entry give the natural chain unless they say otherwise; changes in a name come on top.
UniProt Q9NWX5: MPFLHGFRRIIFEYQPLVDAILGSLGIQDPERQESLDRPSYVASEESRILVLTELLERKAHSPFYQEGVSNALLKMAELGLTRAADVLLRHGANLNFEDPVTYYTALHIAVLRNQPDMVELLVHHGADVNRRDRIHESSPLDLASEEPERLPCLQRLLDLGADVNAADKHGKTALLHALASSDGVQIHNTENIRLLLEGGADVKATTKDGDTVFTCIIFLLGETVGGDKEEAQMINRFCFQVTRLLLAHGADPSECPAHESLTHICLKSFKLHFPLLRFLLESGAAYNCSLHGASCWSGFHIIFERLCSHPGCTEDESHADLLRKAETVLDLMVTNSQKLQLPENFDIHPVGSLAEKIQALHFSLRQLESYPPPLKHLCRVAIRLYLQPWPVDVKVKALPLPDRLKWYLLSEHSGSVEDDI
UniProt Q76L83: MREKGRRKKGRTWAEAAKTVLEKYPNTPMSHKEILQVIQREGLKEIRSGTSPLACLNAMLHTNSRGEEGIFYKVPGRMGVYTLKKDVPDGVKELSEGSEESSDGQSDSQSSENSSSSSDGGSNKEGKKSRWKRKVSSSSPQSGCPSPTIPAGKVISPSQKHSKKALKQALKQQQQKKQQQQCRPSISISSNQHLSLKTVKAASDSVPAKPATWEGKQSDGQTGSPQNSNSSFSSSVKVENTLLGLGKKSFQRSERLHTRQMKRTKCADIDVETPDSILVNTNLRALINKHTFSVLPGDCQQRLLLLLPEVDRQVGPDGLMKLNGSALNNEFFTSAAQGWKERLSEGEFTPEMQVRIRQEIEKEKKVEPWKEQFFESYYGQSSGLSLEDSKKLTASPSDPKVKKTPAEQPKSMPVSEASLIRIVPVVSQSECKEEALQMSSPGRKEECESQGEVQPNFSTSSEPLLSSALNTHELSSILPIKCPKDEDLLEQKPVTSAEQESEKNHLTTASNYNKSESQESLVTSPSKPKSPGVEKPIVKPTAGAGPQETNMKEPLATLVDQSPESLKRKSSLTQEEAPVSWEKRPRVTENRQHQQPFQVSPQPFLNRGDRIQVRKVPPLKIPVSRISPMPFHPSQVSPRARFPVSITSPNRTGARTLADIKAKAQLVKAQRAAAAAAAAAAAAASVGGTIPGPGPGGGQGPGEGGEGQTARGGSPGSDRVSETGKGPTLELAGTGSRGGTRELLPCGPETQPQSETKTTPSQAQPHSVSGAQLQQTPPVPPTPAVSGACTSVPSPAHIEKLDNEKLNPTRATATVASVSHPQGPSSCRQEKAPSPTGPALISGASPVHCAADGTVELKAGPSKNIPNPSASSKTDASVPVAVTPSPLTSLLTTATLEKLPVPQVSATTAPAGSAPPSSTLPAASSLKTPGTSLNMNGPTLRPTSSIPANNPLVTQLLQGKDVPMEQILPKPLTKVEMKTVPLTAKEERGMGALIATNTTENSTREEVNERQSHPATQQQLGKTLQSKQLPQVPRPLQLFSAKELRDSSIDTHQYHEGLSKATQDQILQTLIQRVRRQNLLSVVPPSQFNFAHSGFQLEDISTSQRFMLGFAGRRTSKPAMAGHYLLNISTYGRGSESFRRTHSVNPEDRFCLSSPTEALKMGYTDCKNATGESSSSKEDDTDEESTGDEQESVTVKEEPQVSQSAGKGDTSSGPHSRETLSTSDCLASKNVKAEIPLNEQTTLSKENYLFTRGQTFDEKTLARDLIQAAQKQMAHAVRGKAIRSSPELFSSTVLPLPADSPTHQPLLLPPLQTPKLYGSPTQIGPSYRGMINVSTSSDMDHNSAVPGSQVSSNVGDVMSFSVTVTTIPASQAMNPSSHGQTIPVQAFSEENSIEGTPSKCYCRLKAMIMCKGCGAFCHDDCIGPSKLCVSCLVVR
UniProt P40616: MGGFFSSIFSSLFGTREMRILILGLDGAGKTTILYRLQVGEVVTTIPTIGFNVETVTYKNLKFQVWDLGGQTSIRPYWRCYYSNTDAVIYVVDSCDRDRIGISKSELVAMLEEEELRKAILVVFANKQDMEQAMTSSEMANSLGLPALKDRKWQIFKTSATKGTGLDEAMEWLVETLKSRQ
UniProt Q9NWL6: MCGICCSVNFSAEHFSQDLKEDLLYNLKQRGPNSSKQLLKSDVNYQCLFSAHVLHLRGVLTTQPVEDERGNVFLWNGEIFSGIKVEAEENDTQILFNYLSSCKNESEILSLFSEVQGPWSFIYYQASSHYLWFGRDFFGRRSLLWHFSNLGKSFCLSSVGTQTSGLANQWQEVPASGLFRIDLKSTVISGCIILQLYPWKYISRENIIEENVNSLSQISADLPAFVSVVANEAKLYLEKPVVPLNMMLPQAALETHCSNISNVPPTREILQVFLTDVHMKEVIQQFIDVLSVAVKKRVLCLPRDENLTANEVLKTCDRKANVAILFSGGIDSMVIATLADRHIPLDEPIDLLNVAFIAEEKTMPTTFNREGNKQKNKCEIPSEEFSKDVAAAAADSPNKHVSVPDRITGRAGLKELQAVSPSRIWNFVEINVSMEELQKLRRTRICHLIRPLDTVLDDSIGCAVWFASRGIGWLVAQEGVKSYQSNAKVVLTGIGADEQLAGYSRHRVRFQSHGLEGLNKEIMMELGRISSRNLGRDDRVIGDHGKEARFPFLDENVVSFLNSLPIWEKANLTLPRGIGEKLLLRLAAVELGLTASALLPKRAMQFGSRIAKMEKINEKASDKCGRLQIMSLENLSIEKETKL
UniProt P21283, whole entry, looked up: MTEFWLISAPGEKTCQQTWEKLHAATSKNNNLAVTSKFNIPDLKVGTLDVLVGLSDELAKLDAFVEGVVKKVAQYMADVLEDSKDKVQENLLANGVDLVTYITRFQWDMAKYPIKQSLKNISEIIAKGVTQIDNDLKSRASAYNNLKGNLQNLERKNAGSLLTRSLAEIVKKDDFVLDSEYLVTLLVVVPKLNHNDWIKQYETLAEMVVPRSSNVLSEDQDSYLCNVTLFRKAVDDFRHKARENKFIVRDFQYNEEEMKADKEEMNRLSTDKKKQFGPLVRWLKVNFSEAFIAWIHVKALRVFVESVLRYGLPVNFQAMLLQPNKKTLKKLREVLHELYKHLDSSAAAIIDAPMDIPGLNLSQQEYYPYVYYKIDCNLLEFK
UniProt P18846: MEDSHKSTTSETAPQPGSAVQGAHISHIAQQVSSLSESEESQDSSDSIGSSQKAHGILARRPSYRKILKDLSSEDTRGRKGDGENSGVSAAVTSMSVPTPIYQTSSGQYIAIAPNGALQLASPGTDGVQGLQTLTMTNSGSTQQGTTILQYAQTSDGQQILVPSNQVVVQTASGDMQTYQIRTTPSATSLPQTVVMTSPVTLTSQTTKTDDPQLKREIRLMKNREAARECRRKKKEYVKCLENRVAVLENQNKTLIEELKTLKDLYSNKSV
UniProt Q8N2F6: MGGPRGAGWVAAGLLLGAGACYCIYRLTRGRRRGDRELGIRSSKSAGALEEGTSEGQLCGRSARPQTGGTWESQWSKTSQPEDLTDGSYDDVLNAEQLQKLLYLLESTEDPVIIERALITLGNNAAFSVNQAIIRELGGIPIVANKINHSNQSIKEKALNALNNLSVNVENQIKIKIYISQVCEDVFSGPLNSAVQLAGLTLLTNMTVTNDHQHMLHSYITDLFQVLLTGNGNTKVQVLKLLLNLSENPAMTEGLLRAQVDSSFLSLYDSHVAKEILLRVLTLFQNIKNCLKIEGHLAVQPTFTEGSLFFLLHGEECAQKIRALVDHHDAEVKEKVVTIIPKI
UniProt Q16864, whole entry, looked up: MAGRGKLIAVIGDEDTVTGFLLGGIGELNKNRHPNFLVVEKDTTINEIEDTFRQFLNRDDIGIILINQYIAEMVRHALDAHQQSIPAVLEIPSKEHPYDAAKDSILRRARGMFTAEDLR
UniProt P56385: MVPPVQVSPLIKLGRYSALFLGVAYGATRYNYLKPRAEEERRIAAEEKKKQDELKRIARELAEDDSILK
UniProt Q6UWY0: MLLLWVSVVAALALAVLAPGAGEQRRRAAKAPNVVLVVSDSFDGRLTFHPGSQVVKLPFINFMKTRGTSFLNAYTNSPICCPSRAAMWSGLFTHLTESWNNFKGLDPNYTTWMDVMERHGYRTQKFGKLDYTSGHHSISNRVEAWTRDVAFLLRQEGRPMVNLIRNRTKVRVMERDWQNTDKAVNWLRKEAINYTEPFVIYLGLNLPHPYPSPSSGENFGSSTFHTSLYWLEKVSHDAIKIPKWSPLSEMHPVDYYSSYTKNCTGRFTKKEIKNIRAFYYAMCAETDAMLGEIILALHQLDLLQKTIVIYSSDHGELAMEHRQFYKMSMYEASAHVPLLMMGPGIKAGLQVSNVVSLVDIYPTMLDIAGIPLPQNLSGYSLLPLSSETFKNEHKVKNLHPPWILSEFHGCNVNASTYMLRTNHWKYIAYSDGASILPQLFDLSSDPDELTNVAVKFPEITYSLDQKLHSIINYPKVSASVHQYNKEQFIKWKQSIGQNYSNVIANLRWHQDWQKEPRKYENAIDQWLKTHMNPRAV
UniProt O00244: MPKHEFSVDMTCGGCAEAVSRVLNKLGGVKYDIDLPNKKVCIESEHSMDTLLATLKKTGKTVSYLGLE
UniProt Q9H0Y0: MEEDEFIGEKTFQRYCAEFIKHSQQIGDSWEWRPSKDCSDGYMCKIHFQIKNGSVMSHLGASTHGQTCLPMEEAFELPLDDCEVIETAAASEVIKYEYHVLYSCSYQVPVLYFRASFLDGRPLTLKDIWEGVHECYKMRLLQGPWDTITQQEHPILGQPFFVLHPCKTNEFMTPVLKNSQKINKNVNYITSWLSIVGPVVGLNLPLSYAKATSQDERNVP
UniProt Q6VMQ6: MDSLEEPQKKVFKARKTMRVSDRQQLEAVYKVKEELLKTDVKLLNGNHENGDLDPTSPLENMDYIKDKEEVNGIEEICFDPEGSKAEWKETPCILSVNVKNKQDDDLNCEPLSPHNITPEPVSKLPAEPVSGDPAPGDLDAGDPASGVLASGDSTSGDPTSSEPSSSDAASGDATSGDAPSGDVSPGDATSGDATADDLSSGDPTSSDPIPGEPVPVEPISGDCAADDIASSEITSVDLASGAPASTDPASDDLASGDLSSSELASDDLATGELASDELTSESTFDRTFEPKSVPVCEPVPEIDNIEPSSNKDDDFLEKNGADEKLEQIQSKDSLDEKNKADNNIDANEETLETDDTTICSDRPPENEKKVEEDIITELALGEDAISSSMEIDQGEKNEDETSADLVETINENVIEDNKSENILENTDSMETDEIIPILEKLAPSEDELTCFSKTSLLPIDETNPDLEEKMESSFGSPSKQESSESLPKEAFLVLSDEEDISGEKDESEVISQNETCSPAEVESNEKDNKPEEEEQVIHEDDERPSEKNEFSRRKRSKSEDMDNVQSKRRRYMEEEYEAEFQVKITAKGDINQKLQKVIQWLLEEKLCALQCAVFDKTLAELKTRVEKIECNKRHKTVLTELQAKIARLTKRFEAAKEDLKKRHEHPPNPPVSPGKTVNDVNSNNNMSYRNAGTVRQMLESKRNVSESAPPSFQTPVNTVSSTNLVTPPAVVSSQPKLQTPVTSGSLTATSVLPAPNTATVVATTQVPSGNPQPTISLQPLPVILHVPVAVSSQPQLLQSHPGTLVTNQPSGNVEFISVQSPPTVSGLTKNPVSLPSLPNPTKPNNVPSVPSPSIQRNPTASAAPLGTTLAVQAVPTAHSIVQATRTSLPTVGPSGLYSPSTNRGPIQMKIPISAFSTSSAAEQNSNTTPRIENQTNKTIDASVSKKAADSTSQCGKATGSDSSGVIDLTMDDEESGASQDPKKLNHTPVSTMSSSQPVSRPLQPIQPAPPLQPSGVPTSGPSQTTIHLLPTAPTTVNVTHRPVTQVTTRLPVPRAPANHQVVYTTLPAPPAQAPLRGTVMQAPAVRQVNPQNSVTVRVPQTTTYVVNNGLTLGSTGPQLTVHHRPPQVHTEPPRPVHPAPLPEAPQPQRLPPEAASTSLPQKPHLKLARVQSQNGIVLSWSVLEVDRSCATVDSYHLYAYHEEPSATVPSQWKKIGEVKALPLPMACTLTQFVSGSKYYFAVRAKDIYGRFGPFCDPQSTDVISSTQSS
UniProt Q9Y2Y0: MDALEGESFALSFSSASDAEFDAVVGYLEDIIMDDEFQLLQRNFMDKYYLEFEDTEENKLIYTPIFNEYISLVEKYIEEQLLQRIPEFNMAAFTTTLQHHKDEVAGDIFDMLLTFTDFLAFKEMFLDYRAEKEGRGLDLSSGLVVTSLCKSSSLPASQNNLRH
UniProt P49407: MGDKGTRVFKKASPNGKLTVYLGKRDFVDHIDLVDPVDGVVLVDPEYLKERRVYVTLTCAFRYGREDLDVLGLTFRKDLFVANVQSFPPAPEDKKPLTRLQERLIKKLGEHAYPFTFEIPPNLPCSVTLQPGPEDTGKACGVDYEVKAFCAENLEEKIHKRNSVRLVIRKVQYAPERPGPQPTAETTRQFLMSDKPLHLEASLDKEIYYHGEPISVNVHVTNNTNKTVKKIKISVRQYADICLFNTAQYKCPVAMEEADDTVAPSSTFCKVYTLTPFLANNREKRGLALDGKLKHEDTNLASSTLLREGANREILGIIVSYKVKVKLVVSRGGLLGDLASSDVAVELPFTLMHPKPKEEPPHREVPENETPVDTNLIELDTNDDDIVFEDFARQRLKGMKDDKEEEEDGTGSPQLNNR

Tests used:
Experiment in all cases: log2 fold change, soluble protein after heating vs DMSO (PISA); higher = thermal stabilisation; K562 cells, 10 uM, 30 min; active = over 0.2 and 3.5 SD of the protein, either way, in both replicates (recomputed)
saracatinib = compound: CN1CCN(CCOc2cc(OC3CCOCC3)c3c(Nc4c(Cl)ccc5c4OCO5)ncnc3c2)CC1 [saracatinib]
In short: (§1)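 K562 cells at 2×10^6 cells/mL were exposed to 10 μM compound for 30 min, then aliquots were heated for 3 min across 48°C-58°C, pooled, and extracted in PBS containing 0.5% NP-40 at 4°C. The supernatant after 21,000xg for 90 min was taken as soluble protein and measured by TMTpro 16plex LC-MS/MS with channel sums equalised. Thermal stability is reported relative to control samples, with values from duplicates. Fold changes are given on a log2 scale.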

sotrastaurin = compound: CN1CCN(c2nc(C3=C(c4c[nH]c5ccccc45)C(=O)NC3=O)c3ccccc3n2)CC1 [sotrastaurin]
In short: as §1

Tubastatin A = compound: CN1CCc2c(c3ccccc3n2Cc2ccc(C(=O)NO)cc2)C1 [Tubastatin A]
In short: as §1

[1] = compound: CNC(=O)C1=CC=CC=C1NC2=NC(=NC=C2Cl)NC3=C(C=C(C=C3)N4CCOCC4)OC
In short: as §1

defactinib = compound: CNC(=O)c1ccc(Nc2ncc(C(F)(F)F)c(NCc3nccnc3N(C)S(C)(=O)=O)n2)cc1 [defactinib]
In short: as §1

rucaparib = compound: CNCc1ccc(-c2[nH]c3cc(F)cc4c3c2CCNC4=O)cc1 [rucaparib]
In short: as §1

[2] = compound: CNc1nc(-c2ccc3c(N)n[nH]c3c2)cc(N2C[C@@H](C(=O)NC3CCCCC3)CC[C@H]2C)n1
In short: as §1

encorafenib = compound: COC(=O)N[C@@H](C)CNc1nccc(-c2cn(C(C)C)nc2-c2cc(Cl)cc(NS(C)(=O)=O)c2F)n1 [encorafenib]
In short: as §1

[3] = compound: COC(=O)[C@H](CCSC)NC(=O)C1=C(C=C(C=C1)NC[C@H](CS)N)C2=CC=CC=C2
In short: as §1

alvocidib = compound: CN1CC[C@H](c2c(O)cc(O)c3c(=O)cc(-c4ccccc4Cl)oc23)[C@H](O)C1 [alvocidib]
In short: as §1

Measured: log2 fold change

ATP1A1 (UniProt P05023)
inactive: saracatinib 0.046 | sotrastaurin 0.039 | Tubastatin A -0.026 | [1] -0.026 | defactinib -0.024 | rucaparib -0.009 | [2] 0.011 | encorafenib -0.001 | [3] 0.014

ATAD1 (UniProt Q8NBU5)
inactive: saracatinib -0.044 | sotrastaurin 0.029 | Tubastatin A 0.008 | [1] -0.032 | defactinib -0.029 | rucaparib 0.018 | [2] 0.136 | encorafenib 0.017 | [3] -0.042

ATF6 (UniProt P18850)
inactive: sotrastaurin 0.037

ASB6 (UniProt Q9NWX5)
inactive: sotrastaurin -0.029 | [1] -0.078 | defactinib -0.033 | rucaparib 0.124 | encorafenib -0.094 | [3] 0.031

Fetched one by one from above, 2 records:
ASB6 (UniProt Q9NWX5)
inactive: sotrastaurin -0.029 | [1] -0.078 | defactinib -0.033 | rucaparib 0.124 | encorafenib -0.094 | [3] 0.031

ATF6 (UniProt P18850)
inactive: sotrastaurin 0.037

Continuation:

ATP1A2 (UniProt P50993)
inactive: saracatinib -0.238 | [2] -0.246

ATP6V0A1 isoform 3 (UniProt Q93050)
inactive: saracatinib -0.253 | sotrastaurin -0.236 | Tubastatin A 0.089 | [1] -0.052 | defactinib 0.125 | rucaparib 0.154 | [2] 0.032 | encorafenib 0.196 | [3] -0.02

ASXL2 (UniProt Q76L83)
inactive: saracatinib -0.211 | [1] -0.466 | [2] 0.165

ARL1 (UniProt P40616)
inactive: saracatinib 0.117 | sotrastaurin -0.049 | Tubastatin A 0.031 | [1] -0.017 | defactinib 0.03 | rucaparib -0.012 | [2] 0.058 | encorafenib 0.117 | [3] -0.178

ATG14 (UniProt Q6ZNE5)
inactive: sotrastaurin -0.015 | [1] 0.032 | rucaparib -0.236 | encorafenib -0.247

ASNSD1 (UniProt Q9NWL6)
inactive: sotrastaurin -0.119

ATP6V1C1 (UniProt P21283)
inactive: saracatinib -0.193 | sotrastaurin -0.07 | Tubastatin A 0.059 | [1] -0.034 | defactinib -0.011 | rucaparib 0.137 | [2] 0.004 | encorafenib 0.083 | [3] -0.013

ATF1 (UniProt P18846)
inactive: sotrastaurin -0.098 | Tubastatin A -0.068 | [1] -0.052 | defactinib 0.045 | rucaparib -0.128 | encorafenib -0.07 | [3] 0.024

ASXL1 (UniProt Q8IXJ9)
inactive: sotrastaurin 0.068 | alvocidib 0.152 | Tubastatin A 0.285 | [1] -0.163 | rucaparib 0.037 | encorafenib 0.111

ATP6AP1 (UniProt Q15904)
inactive: saracatinib -0.021 | sotrastaurin -0.097 | Tubastatin A 0.043 | [1] -0.011 | defactinib 0.066 | rucaparib -0.057 | [2] -0.006 | encorafenib 0.053 | [3] -0.031

ARMC10 (UniProt Q8N2F6)
inactive: saracatinib 0.012 | sotrastaurin -0.123 | Tubastatin A 0.109 | [1] 0.079 | defactinib -0.03 | rucaparib 0.157 | [2] 0.006 | encorafenib 0.142 | [3] -0.049

ATG4A (UniProt Q8WYN0)
inactive: alvocidib -0.033 | defactinib -0.053 | [3] -0.007

ATP6V1F isoform 2 (UniProt Q16864)
inactive: saracatinib -0.198 | sotrastaurin 0.092 | Tubastatin A 0.11 | [1] 0.031 | defactinib 0.007 | rucaparib -0.037 | [2] -0.129 | encorafenib -0.039 | [3] 0.238

ATP5ME (UniProt P56385)
inactive: saracatinib 0.026 | sotrastaurin 0.009 | Tubastatin A -0.009 | [1] -0.006 | defactinib 0.029 | rucaparib -0.022 | [2] -0.069 | encorafenib -0.07 | [3] 0.023

ATE1 (UniProt O95260)
inactive: saracatinib 0.105 | alvocidib 0.058 | Tubastatin A -0.296 | defactinib -0.219 | rucaparib 0.068 | [2] -0.04 | encorafenib -0.18 | [3] 0.103

ATP5F1B (UniProt H0YI37)
inactive: saracatinib -0.11 | sotrastaurin 0.325 | defactinib 0.193 | rucaparib 0.26 | [2] -0.128 | encorafenib -0.28 | [3] -0.127

ARL3 (UniProt P36405)
inactive: saracatinib 0.021 | sotrastaurin -0.008 | Tubastatin A -0.012 | [1] -0.025 | defactinib -0.025 | rucaparib -0.033 | [2] -0.035 | encorafenib -0.022 | [3] 0.022

ARSK (UniProt Q6UWY0)
inactive: alvocidib 0.001 | [1] 0.042 | defactinib 0.018 | [3] -0.053

ATP13A2 (UniProt Q9NQ11)
inactive: saracatinib 0.061 | sotrastaurin 0.036 | Tubastatin A 0.026 | [1] 0.015 | defactinib -0.116 | rucaparib 0 | [2] 0.039 | encorafenib -0.027 | [3] 0.026

ARPIN isoform 2 (UniProt Q7Z6K5)
inactive: Tubastatin A 0.003 | [1] -0.027 | defactinib -0.173 | [3] 0.005

ATOX1 (UniProt O00244)
inactive: saracatinib -0.042 | sotrastaurin -0.054 | Tubastatin A 0.062 | [1] 0.001 | defactinib -0.117 | rucaparib -0.09 | [2] -0.046 | encorafenib 0.047 | [3] -0.105

ATG10 (UniProt Q9H0Y0)
inactive: Tubastatin A -0.175 | [1] -0.141 | defactinib 0.042 | [3] 0

ATP8B2 isoform 3 (UniProt P98198)
inactive: defactinib 0.018 | [3] 0.063

ATF7IP isoform 4 (UniProt Q6VMQ6)
inactive: alvocidib -0.046 | Tubastatin A -0.031 | [1] 0.002 | defactinib -0.106 | [3] -0.087

ATG4B isoform 2 (UniProt Q9Y4P1)
inactive: saracatinib -0.186 | sotrastaurin -0.297 | Tubastatin A 0.02 | [1] 0.027 | defactinib -0.263 | rucaparib -0.02 | [2] 0.004 | encorafenib -0.003 | [3] -0.04

ATP5F1B (UniProt F8W0P7)
inactive: saracatinib -0.011 | sotrastaurin -0.013 | Tubastatin A 0.132 | [2] 0.124

ARL6 isoform 2 (UniProt Q9H0F7)
inactive: defactinib 0.022 | [3] 0.108

ARL2BP (UniProt Q9Y2Y0)
inactive: saracatinib 0.093 | sotrastaurin -0.047 | Tubastatin A 0.082 | [1] 0.002 | defactinib -0.153 | rucaparib 0.055 | [2] 0.147 | encorafenib -0.12 | [3] -0.055

ATP6V1H (UniProt Q9UI12)
inactive: saracatinib -0.047 | sotrastaurin -0.015 | Tubastatin A 0.046 | [1] -0.016 | defactinib -0.042 | rucaparib 0.016 | [2] 0.054 | encorafenib 0.016 | [3] -0.043

ATF7 isoform 6 (UniProt P17544)
active: saracatinib 0.477
inactive: sotrastaurin -0.105 | Tubastatin A -0.088 | [1] -0.096 | defactinib 0.063 | [2] 0.034 | [3] -0.037

ATP2C1 isoform 3 (UniProt P98194)
inactive: alvocidib -0.149 | [1] -0.018

ARRB1 isoform 2 (UniProt P49407)
inactive: saracatinib 0.05 | alvocidib 0.145 | Tubastatin A -0.071 | [1] -0.105 | defactinib -0.11 | rucaparib -0.052 | [2] -0.116 | encorafenib 0.035 | [3] 0.06
